Measurements published in patent CN1930187A.
Results are given in words; binding and its absence hold for the method and conditions named. Some entries that bind do so weakly or less than the wild type.

Key:
[1] = biological target: EGFRvIII-rabbit Fc fusion protein (EGFRvIII-RbFc) (human; rabbit) (UniProt P00533); assay: rEGFRvIII Western, reduced, EGFRvIII-rabbit Fc fusion protein
[2] = biological target: EGFRvIII-rabbit Fc fusion protein (EGFRvIII-RbFc) (human; rabbit) (UniProt P00533); assay: EGFRvIII Western, non-reduced (幼稚), EGFRvIII-rabbit Fc fusion protein
[3] = biological target: T1, EGFRvIII PEP3 peptide conjugated to OVA (EGFRvIII肽-OVA) (human); assay: binding to pep3 (XenoMax screen)
T1 sequence (peptide, Cys 14 coupled to maleimide-activated ovalbumin (peptide,OVA 14.5,1)): LEEKKGNYVVTDHC

[4] = biological target: EGFRvIII (full length, expressed by cells: NR6 M, H1477, 300.19/EGFRvIII) (human) (UniProt P00533); assay: EGFRvIII FACS

binding [1]: binds | binding [2]: binds | binding [3]: binds | binding [4]: binds
B1: AB-EGFRvIII-XG1-095 (antibody, human IgG1, V domains shown)
VH: QVQLQESGPFLVKPSQTLSLTCTVSGGSISSGGYYWSWIRQHPGKGLEWIGFIYYRGNTYYNPSLKSRVTISVDTSKNQFSLKLSSVTAADTAVYYCARDGYCSRTGCYGGWFDPWGQGTLVTVSP
VL: DIVMTQTPLSSPVTLGQPASISCRSSQSLIHTDGNIYLSWLQQRPGQPPRLLIYKISNRFSGVPDRFSGSGAGTDFTLKISRVEAEDVGVYYCMQGTQFPITFGQGTRLEIK
